# Drug screen on melanoma cell lines: apoptosis marker

From a melanoma drug combination screen (doi:10.1371/journal.pone.0140310); values rounded.

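Human melanoma cell lines in 1,536-well plates were treated with a pair of drugs for 72 h, then fixed, stained and imaged. Values are the share of nuclei positive for cleaved PARP as a percentage of the same share in the DMSO control: 100 is the control level, higher means more apoptosis. Every drug was used at one fixed concentration, the higher of two screened. The file gives one value for each pair and line, without errors, so small differences may be noise. The marker varies much from line to line, for technical or biological reasons.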 This is part of the screen, not chosen by result. An entry leaves out what has no value listed here.

Drugs:
bortezomib, 0.005 µM: CC(C)C[C@H](NC(=O)[C@H](Cc1ccccc1)NC(=O)c1cnccn1)B(O)O
VX-702, 2 µM: NC(=O)c1ccc(N(C(N)=O)c2c(F)cccc2F)nc1-c1ccc(F)cc1F
L-779450, 1 µM: Oc1cc(-c2nc(-c3ccccc3)[nH]c2-c2ccncc2)ccc1Cl
vorinostat, 0.4 µM: O=C(CCCCCCC(=O)Nc1ccccc1)NO
decitabine, 0.5 µM: Nc1ncn([C@H]2C[C@H](O)[C@@H](CO)O2)c(=O)n1
SU6656, 2 µM: CN(C)S(=O)(=O)c1ccc2c(c1)/C(=C/c1cc3c([nH]1)CCCC3)C(=O)N2
darinaparsin, 2 µM: C[As](C)SC[C@H](NC(=O)CC[C@H](N)C(=O)O)C(=O)NCC(=O)O

With vorinostat + darinaparsin the screen read SK-MEL-2: 168; RVH-421: 93.6; G-361: 150; UACC-257: 172.
With L-779450 + darinaparsin the screen read SK-MEL-2: 323; RVH-421: 140; G-361: 157; UACC-257: 22.4.
With darinaparsin + bortezomib the screen read SK-MEL-2: 203; RVH-421: 10800; G-361: 7010; UACC-257: 95.2.
With decitabine + L-779450 the screen read 501mel: 108; SK-MEL-2: 219; RVH-421: 91.6; G-361: 242; UACC-257: 103.
With SU6656 + VX-702 the screen read SK-MEL-2: 102; RVH-421: 196; G-361: 204; UACC-257: 39.0.
With SU6656 + bortezomib the screen read SK-MEL-2: 154; RVH-421: 1260; G-361: 13100; UACC-257: 88.2.
With vorinostat + bortezomib the screen read SK-MEL-2: 225; RVH-421: 3410; G-361: 9840; UACC-257: 138.
With VX-702 + decitabine the screen read SK-MEL-2: 87.5; RVH-421: 144; G-361: 115; UACC-257: 25.5.
With L-779450 + SU6656 the screen read 501mel: 205; SK-MEL-2: 652; RVH-421: 1170; G-361: 148; UACC-257: 51.2.
With vorinostat + L-779450 the screen read 501mel: 227; SK-MEL-2: 713; RVH-421: 83.0; G-361: 244; UACC-257: 49.8.
With vorinostat + VX-702 the screen read SK-MEL-2: 101; RVH-421: 1110; G-361: 46.0; UACC-257: 90.3.
With VX-702 + darinaparsin the screen read SK-MEL-2: 91.6; RVH-421: 78.1; G-361: 77.5; UACC-257: 19.2.
With bortezomib + decitabine the screen read SK-MEL-2: 269; RVH-421: 2100; G-361: 9700; UACC-257: 78.0.
With SU6656 + decitabine the screen read SK-MEL-2: 22.7; RVH-421: 295; G-361: 271; UACC-257: 68.9.
With L-779450 + bortezomib the screen read 501mel: 1770; SK-MEL-2: 184; RVH-421: 548; G-361: 7890; UACC-257: 63.6.
With darinaparsin + SU6656 the screen read SK-MEL-2: 136; RVH-421: 13.3; G-361: 85.4; UACC-257: 93.0.
With decitabine + darinaparsin the screen read SK-MEL-2: 89.4; RVH-421: 118; G-361: 214; UACC-257: 182.
With bortezomib + VX-702 the screen read SK-MEL-2: 210; RVH-421: 1090; G-361: 3380; UACC-257: 94.4.
With SU6656 + vorinostat the screen read SK-MEL-2: 82.5; RVH-421: 187; G-361: 185; UACC-257: 297.
With decitabine + vorinostat the screen read SK-MEL-2: 186; RVH-421: 130; G-361: 293; UACC-257: 89.9.
With VX-702 + L-779450 the screen read 501mel: 104; SK-MEL-2: 271; RVH-421: 140; G-361: 364; UACC-257: 54.8.

2 of the entries, repeated:

{"combination": "L-779450 + darinaparsin", "SK-MEL-2": 323, "RVH-421": 140, "G-361": 157, "UACC-257": 22.4}
{"combination": "bortezomib + decitabine", "SK-MEL-2": 269, "RVH-421": 2100, "G-361": 9700, "UACC-257": 78.0}